Here are results for 103 sequences from PubChem BioAssay AID1347423 (Functional Genomics Laboratory (NCATS/FGL), 2020).

The campaign covered roughly 52,000 sequences. About 210 (0.4%) were called active.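 Rule for the calls: active = gene whose silencing raises cell survival under the drug, median off-target-corrected z-score across its silencing RNAs 2 or more; inactive = the rest.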 Some of the results follow.

The nature of the assay: Resistance to Poly (ADP-Ribose) Polymerase inhibitor: Gene Identification via Genome-wide siRNA Screen. Conditions: mouse BRCA2 R2336H ES cells, olaparib, CellTiter-Glo viability; stronger effect = higher value. The method in brief:
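Mouse BRCA2 R2336H ES cells were reverse-transfected with siRNA (20 nM final), treated at 48 h with 500 nM olaparib, and read by CellTiter-Glo after 72 h. Scores: MAD-based z per siRNA, median per gene, seed off-target correction.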
Take GCGUCUUAUAUGGGUGGCUTT against Olfr1016: the z-score is inactive: -1.81.
Turning to GGUUUUUAGCCUGAGUGAGTT against Olfr688, the z-score is inactive: 0.928.
As for GGGCAUCGCUUUGAGAGUATT against Srprb, the z-score was inactive: -0.649.
Next, “CGUGAGGGUCAACUUCUUCTT against 1810063P04Rik”: inactive: -1.9; GGCUUAUGACCAUGACAGCTT against Odz2: inactive: -0.359.
As to CCCUAAUUUAUUCUCGGCGTT against 5-Sep, the z-score is inactive: 0.142.
With GGGCCAUAUGUCUUUGCUATT against Olfr998 the figure was inactive: -0.7; with GCUGGUGUCUCAGAUCUCATT against LOC544763, inactive: 0.117; with “GGCUUUUAACACCUUCAUUTT against C130052I12Rik”, inactive: 0.512.
Next, GCAUACGGAAUCUUUACGGTT against Accn2: inactive: 0.872; GGAAUUAUGGAUUGUUAAGTT against Olfr212: inactive: -0.522; GGUCAGCGAACCACGAUAATT against Olfr314: inactive: -1.46.
Next, GGUCCAGAUCCACCAGAUUTT against Banp: inactive: -2.93; GCGAAUCACCACCAUCACATT against Pcbp4: inactive: -0.979; GGCGAUCUAUCACACUGUGTT against Chst7: inactive: 1.39.
Take CGAUUGCUAAGGUGUUUGATT against Sfmbt1: the z-score is inactive: -0.918.
For the sequence GGAAACUGUACAGAUAUUGTT against Fbn2, the z-score is inactive: 0.52.
For “GCACAUUGGGAUAGCUGCATT against 4732463G12Rik”, the z-score is inactive: -1.93.
For the sequence GCAGGAAUCUAAUCUGCUGTT against Gpd1, the z-score was inactive: 0.333.
“GCAUUGUCGUGUCUUCUCUTT against 2610036D13Rik”: the z-score is inactive: -2.48.
Regarding “GAUAUAAUUACUGAACCACTT against 4930481M05”, the z-score is inactive: 0.66.
With GGACAGAUGCCAUCUCAGUTT against Anxa7, the z-score was inactive: -0.122.
Take GGUUGCCUCAACUCCAUUGTT against Olfr1412: the z-score was inactive: -1.31.
As to “GGCCCAGUGACUAUGGAAUTT against E130307M08Rik”, the z-score is inactive: -1.32.
Next, GGAGAAGAAGAAAUCCAAATT against Scn11a: inactive: -1.11; UGGACUGUAUUGAAAACCATT against AV284857: inactive: -0.016; GGCGAAGAAGAAUAAAAGATT against Lyar: inactive: 0.817.
With “GGAUGACUAUGUGAAUAUATT against 4933404G15Rik” the figure was inactive: -0.856; with “GCCUGACUACUGAAGCUUGTT against 1810029B16Rik”, inactive: 0.663.
Next, “GGCAGAAAAGAUGGAAAAUTT against B130050I23Rik”: inactive: 0.469; CCCAGGCUCCUAUUUGUUUTT against Calml3: inactive: 0.446.
On to GGUCAAUGAGUUAGCUAUATT against Olfr1132, for which the z-score was inactive: 0.548.
With GGCCUGGUAUAUAUCUGUCTT against Olfr6 the figure was inactive: 0.106; with “GGAUGUUUUAUUUCCGUACTT against 2310057D15Rik”, inactive: 0.412; with GGAACUUUCCUUUUUUGUCTT against Serpinb5, inactive: -0.565.
With CGAAUCCUCACUAAAUUGGTT against Cnn3 the figure was inactive: 1.72; with GGCGCAAAUACUUCUUCAUTT against Nrg1, inactive: 1.4; with “GGCCUCAAGAACUUUUUGCTT against 9830165K03Rik”, inactive: -0.113.
With GCAUUUGAACAGUGUGCCATT against Arch the figure was inactive: 0.263.
As to GCUGACCUUCACUACUAUUTT against Lass6, the z-score is inactive: -0.847.
Next, GGAUCUCGUGCGAAAAAAATT against Olfr809: inactive: -0.802; GGUGAUCCAGCUUUCUUGGTT against Tiaf2: inactive: 0.147; “GGCUCUCCUGAUCCAAGCUTT against 1200015A19Rik”: inactive: 0.682.
GGAGCUCACCAAAAUAGCUTT against Akr1c21: the z-score was inactive: 0.54.
With GCCUUAAUGAGGGUUAUGCTT against Fbp1 the figure was inactive: 1.29.
With GCAGAAGAAGAAGGGUUCCTT against Emx1, the z-score is inactive: -0.354.
With CCAGUAUAUUCUGAGGGUUTT against Isl1 the figure was inactive: 0.841; with “GCUCUUAACAACGGGUGGATT against A130079P16Rik”, inactive: -0.124; with “CCCUAUACGACUAGCUCUGTT against 4732406D01Rik”, inactive: 1.06.
Next, “GCCAGCUUACGAACAUUAATT against 2810465F10Rik”: inactive: -0.0764; UCACCGAAUGUCUUCUUCUTT against Olfr47: inactive: 1.45.
Next, “CCUUGGACUUGAGUUCCAATT against D630042P16Rik”: inactive: -0.645.
For the sequence GGACAACAGCAAAACAUCUTT against Atoh1, the z-score is inactive: 2.44.
With GGAUGAAUUGAUUGAGAUCTT against Sv2a the figure was inactive: -0.0207; with GGUGAAUCGGUUUUCAGAUTT against C79267, inactive: 0.474.
Consider GGAACCUGCAUGAUAUAGGTT against Zfp617, for which the z-score was inactive: 0.777.
Next, GGAAUGUCUAUCACAAUGGTT against V1re8: inactive: 0.128; GCUACUCCAAGGUGAAAGUTT against Sstk: inactive: 0.957.
Consider GGAGGAGUGUGUGAAAGGATT against Terf2ip, for which the z-score is inactive: -0.301.
With “GGACUUAAAAGAGGAGAUCTT against 4933434E20Rik” the figure was inactive: -0.477.
With GGCUUACUACGACACAGACTT against Clk2 the figure was inactive: -0.232; with “GGUGUUUACACCCAGCACCTT against 4932411E22Rik”, inactive: 0.268; with CCGUCAUGAUCUUAAAAGATT against Slc30a8, inactive: 1.15.
For “GCAUUAGAUCAGACCAUUUTT against 1500035H01Rik”, the z-score was inactive: 2.
With GCUGUCACUUUGAAUCCCUTT against Nrg1 the figure was inactive: -0.309; with “GGACUUAGCUUUGUUUCCUTT against 1110017C15Rik”, inactive: -0.854; with GCAAACGAAAAACAGUGACTT against Nsf, inactive: -1.13.
With GGGCUAUGCAAAUUUACAATT against Kdelc1 the figure was inactive: -1.14.
Regarding GGAACAGUCCUGUACACCCTT against Gp49a, the z-score is inactive: 0.807.
Next, CCAUCAGAUUAUCUAUCUATT against Mapk11: inactive: 0.433.
Regarding GGUAUAGCUUGGGCUAUAGTT against Olfr92, the z-score is inactive: 0.0939.
With UCUUCGGUCAACUCUAUGGTT against Olfr969 the figure was inactive: -2.35; with CCUUUUUGUUGUCUCACUATT against Olfr116, inactive: -0.201; with “GGUGUGUGCCUUUUAUUUUTT against 2810037C03Rik”, inactive: 1.2.
Next, “GGGUUUCUUCAUAACUCUUTT against 6530401P13”: inactive: 0.207.
Next, “GGUCAUCCGAUGCUUUGUATT against 4930515G01Rik”: inactive: -1.66; “GGGUCAUUGUUUUUUCUGUTT against 2810037C14Rik”: inactive: 0.562.
In the case of “GCCGUGCGAUUUAAUGUGGTT against 1500041N16Rik”, the z-score was inactive: 1.18.
With CCACUGCUUACUUCCUGUATT against Ii the figure was inactive: -0.537.
Next, GGCUCUGGGUGGUAUUCAUTT against Slc5a2: inactive: 2.68; GGUCCACAGAUUCUUCUAATT against Zfa: inactive: -0.793.
Next, GGAGAUUUGUCAGAACCUCTT against Adrbk1: inactive: -0.168.
Take GCUUUAAAUAGAGACUAUCTT against Sox30: the z-score was inactive: 0.795.
Next, GGAAGAAGCCACCUUUUUUTT against Cd2: inactive: -0.608; GGCACUGGAACUAAUAUAUTT against Ormdl2: inactive: -0.262.
With “GGUUAUUCCACCUCUUGCCTT against 2310028N02Rik”, the z-score is inactive: 0.145.
Next, CGGCGGCAACAAUAACAAGTT against BC040774: inactive: -0.274; GCACUUAUGGACUUCCAGCTT against Cd2ap: inactive: 0.777.
Next, “GGGUCCUCUCCACAUCAAGTT against A230051G13Rik”: inactive: -0.135; GGAAGAACAGUUCAGCGGATT against Plekhk1: inactive: 0.238; GCCAAAUGAACUAGCAAUATT against Golph2: inactive: 0.628.
Next, GGAACCUAAACGAACAAGGTT against Col6a2: inactive: 0.445; GGAACACAAGCACCUGCAUTT against Corin: inactive: -1.43; GGAUCACUGGCACCAAUGUTT against Clca1: inactive: -1.91.
With “GGAUUUGUUCAAAUAACAGTT against 2700023B17Rik”, the z-score was inactive: -1.63.
Next, GGAAGAUCGGAGACAAAGUTT against Pmaip1: inactive: -1.04; CGGAAUUUGAACGUGUCUUTT against Cdk9: inactive: 0.631; GGGCUACCAUAGUGACAAATT against Gja5: inactive: 2.09.
GGAAGACACAUCACCAAAATT against Chaf1a: the z-score was inactive: -2.73.
Next, GCCAUAGCUCGAGACUCUCTT against Tcfap2b: inactive: 0.684; “GUGGAAGAAGGAAAAGCCCTT against 2310006J04Rik”: inactive: 0.116; “GCUCGAUCAUGGGCCUAUATT against 0610009I22Rik”: inactive: -1.84.
Regarding “GGGCAGCAAAGAAUUAACUTT against 2810004N20Rik”, the z-score was inactive: -0.568.
